Data from patent publication US11136320B2, “Fused ring derivative used as FGFR4 inhibitor” (JACOBIO PHARMACEUTICALS CO., LTD., priority 2019, dated 2021).
At least one structure is not confirmed: it was looked up by name or label, or the drawing left a doubt.

Chains of the proteins cited; added tags and fusions are not shown. Residues count along the entry.
UniProt P22455, 22-802: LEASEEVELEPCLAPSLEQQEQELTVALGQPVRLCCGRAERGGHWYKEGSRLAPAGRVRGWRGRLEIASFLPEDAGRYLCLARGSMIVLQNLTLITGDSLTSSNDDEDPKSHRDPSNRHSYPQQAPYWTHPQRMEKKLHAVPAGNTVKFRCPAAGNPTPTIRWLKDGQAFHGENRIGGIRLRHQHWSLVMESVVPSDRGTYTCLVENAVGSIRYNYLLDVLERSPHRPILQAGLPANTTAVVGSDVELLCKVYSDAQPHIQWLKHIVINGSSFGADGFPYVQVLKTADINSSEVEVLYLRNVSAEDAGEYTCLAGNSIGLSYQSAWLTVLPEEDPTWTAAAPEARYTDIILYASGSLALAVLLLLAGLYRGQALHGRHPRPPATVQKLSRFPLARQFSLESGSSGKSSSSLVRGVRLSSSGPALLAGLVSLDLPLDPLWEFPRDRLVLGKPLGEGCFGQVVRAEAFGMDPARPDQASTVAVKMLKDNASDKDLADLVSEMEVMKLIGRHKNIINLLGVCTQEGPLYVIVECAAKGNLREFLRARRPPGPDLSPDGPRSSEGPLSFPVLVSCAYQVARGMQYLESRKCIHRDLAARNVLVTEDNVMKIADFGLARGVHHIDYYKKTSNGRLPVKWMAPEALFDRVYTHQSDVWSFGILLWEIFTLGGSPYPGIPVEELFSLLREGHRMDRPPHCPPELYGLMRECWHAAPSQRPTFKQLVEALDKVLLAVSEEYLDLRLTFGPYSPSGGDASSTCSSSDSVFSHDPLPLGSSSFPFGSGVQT

Target: FGFR4 kinase (Homo sapiens (Human), UniProt P22455)

CSCCNc1cc(NC(=O)N2CCCc3cc(CN4CCN(C)CC4=O)c(C=O)nc32)ncc1C#N [Compound 1]
inhibitory effect on FGFR4 compared with the reference compound: better inhibitory effect on FGFR4 than the reference compound
